The other results are listed elsewhere or left out.
Experiments:
Assay in all cases: log2 fold change, soluble protein after heating vs DMSO (PISA); higher = thermal stabilisation; K562 lysate, 10 uM; active = over 0.2 and 3.5 SD of the protein, either way, in both replicates (recomputed)
[1] = compound: CS(=O)(=O)CCNCc1ccc(-c2ccc3ncnc(Nc4ccc(OCc5cccc(F)c5)c(Cl)c4)c3c2)o1 [lapatinib]
Method in brief: (§1)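 Log-two fold change in thermal stability relative to solvent controls is reported from duplicates. For each sample, crude K562 extract from dounce-homogenised pellets in PBS pH 7.4 with 1 mM MgCl2, at 1 mg/mL protein, was treated with 10 μM compound for 30 min. Aliquots heated for 3 min across 48°C-58°C were pooled, brought to 0.5% NP-40 at 4°C and cleared at 21,000xg for 90 min. The supernatant was quantified by TMTpro 16plex LC-MS/MS with channel sums equalised.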

Chains of the proteins cited; added tags and fusions are not shown. Lines headed by an entry give the natural chain unless they say otherwise; changes in a name come on top.
UniProt P14625, whole entry, looked up: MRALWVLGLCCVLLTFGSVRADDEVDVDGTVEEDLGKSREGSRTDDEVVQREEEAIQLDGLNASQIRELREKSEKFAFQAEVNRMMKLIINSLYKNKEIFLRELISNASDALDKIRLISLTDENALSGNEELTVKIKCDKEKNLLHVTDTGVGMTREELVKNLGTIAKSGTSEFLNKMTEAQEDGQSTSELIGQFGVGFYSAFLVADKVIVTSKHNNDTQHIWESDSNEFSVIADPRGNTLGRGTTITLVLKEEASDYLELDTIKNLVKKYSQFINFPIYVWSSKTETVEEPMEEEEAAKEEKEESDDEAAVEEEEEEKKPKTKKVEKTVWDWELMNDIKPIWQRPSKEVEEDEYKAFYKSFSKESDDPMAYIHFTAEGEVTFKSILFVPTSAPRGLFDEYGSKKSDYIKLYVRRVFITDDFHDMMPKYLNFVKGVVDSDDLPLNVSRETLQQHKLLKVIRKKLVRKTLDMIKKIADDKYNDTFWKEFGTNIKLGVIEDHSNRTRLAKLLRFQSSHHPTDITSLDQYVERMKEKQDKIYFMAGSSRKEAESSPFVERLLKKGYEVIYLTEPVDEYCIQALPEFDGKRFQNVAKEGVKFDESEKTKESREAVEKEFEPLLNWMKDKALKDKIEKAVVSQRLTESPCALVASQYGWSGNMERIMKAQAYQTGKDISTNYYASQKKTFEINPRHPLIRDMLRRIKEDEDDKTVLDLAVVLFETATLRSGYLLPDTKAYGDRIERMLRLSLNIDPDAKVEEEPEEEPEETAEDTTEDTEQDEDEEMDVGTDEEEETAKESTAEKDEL
UniProt Q01581: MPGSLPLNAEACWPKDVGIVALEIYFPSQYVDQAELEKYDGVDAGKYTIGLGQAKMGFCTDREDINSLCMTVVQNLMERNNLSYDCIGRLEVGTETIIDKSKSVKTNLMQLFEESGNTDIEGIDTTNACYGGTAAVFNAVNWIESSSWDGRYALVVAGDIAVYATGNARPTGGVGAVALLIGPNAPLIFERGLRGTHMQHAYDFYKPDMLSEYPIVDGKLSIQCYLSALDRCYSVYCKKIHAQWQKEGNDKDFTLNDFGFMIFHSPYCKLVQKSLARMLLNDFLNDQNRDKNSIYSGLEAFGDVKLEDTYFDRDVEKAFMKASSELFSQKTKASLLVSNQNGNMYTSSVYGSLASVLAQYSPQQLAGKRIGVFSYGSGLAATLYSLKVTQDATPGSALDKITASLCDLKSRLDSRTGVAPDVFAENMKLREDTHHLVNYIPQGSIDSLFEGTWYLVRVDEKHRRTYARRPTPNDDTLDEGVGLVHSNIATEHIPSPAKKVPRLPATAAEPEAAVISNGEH
UniProt P52789: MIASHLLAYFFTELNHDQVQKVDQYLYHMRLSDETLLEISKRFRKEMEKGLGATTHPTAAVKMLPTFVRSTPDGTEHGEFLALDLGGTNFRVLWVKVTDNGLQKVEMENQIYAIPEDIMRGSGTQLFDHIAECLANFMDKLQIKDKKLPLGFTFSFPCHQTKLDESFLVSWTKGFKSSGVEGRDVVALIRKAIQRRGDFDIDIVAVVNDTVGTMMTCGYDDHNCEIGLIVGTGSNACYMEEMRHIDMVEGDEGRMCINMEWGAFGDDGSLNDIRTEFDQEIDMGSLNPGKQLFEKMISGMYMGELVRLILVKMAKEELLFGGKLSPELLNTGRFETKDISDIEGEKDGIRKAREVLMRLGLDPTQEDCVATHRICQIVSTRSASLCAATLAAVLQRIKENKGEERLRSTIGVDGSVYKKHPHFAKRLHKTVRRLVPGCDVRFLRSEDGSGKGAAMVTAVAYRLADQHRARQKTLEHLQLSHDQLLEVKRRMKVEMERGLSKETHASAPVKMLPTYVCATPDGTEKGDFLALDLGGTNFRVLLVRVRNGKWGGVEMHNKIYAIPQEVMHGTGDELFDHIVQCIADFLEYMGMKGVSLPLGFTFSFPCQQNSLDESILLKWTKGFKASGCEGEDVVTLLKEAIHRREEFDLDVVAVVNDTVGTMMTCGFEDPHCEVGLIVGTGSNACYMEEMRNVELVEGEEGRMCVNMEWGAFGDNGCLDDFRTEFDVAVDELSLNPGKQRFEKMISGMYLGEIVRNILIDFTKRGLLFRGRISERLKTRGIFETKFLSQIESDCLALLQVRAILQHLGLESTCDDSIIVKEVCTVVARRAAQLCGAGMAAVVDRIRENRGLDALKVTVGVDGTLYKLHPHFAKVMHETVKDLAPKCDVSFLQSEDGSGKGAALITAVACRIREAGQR
UniProt Q99729: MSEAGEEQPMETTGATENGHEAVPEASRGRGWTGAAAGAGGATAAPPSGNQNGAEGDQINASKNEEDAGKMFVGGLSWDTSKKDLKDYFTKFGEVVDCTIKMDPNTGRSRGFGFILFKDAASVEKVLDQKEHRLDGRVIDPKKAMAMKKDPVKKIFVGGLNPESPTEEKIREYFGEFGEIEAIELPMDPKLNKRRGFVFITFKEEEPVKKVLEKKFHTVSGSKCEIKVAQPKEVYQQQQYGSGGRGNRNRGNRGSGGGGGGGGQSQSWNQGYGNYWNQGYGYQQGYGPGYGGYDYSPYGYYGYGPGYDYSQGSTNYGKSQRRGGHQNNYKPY
UniProt P30519: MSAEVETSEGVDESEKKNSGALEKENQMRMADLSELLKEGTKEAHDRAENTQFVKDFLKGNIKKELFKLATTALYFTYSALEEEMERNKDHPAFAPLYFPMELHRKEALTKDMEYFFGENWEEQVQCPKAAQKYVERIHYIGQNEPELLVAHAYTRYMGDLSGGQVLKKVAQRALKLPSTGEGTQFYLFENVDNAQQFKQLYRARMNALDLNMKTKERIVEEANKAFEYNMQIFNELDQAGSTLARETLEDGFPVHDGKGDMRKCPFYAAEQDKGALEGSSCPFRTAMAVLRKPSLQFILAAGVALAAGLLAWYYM
UniProt Q14469: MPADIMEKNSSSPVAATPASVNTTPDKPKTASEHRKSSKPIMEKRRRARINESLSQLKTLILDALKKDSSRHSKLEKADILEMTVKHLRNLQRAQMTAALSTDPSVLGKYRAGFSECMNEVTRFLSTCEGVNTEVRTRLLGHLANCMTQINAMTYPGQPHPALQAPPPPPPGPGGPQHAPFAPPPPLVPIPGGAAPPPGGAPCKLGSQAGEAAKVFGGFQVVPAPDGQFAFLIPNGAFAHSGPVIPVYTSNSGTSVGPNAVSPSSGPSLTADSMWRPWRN
UniProt P50135: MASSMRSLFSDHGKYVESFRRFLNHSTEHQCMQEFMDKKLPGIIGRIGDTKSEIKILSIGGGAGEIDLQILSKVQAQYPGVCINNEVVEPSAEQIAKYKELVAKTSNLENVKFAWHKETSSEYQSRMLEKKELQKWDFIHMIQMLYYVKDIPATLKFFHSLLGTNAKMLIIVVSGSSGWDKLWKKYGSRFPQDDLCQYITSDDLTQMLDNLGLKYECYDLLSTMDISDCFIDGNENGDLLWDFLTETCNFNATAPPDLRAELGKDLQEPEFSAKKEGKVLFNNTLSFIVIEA
UniProt O95757: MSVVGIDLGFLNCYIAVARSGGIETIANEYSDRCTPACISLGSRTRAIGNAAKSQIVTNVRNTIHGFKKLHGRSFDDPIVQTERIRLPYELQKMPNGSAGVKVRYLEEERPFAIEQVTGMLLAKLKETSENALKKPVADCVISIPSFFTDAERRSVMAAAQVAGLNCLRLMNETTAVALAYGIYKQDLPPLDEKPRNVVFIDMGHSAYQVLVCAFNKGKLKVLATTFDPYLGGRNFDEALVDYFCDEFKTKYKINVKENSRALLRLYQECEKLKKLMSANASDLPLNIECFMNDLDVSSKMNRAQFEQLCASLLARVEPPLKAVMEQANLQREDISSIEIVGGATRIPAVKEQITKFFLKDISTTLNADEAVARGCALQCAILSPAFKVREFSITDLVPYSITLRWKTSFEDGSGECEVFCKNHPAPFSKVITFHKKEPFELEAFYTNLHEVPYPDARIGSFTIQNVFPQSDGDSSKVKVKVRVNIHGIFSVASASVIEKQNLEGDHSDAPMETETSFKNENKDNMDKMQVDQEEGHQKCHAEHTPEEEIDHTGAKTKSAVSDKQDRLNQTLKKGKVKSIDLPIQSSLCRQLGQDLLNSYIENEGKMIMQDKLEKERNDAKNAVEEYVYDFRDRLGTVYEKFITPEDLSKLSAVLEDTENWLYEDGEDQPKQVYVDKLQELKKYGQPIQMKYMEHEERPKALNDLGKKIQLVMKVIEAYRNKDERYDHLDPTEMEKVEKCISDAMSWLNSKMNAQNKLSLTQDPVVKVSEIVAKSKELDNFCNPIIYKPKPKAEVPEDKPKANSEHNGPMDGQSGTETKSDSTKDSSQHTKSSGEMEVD
UniProt P17096: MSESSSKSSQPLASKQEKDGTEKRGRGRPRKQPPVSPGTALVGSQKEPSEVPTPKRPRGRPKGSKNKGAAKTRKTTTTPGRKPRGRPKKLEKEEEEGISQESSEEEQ
UniProt Q9NRV9: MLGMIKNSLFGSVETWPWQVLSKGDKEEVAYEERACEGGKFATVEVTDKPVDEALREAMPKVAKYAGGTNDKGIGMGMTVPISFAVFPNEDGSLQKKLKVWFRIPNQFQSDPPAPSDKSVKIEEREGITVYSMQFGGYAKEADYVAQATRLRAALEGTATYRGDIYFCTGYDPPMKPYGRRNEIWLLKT
UniProt P05114: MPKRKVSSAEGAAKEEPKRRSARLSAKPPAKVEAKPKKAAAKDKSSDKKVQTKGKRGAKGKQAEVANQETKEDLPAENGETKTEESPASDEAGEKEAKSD
UniProt Q8NCD3, whole entry, looked up: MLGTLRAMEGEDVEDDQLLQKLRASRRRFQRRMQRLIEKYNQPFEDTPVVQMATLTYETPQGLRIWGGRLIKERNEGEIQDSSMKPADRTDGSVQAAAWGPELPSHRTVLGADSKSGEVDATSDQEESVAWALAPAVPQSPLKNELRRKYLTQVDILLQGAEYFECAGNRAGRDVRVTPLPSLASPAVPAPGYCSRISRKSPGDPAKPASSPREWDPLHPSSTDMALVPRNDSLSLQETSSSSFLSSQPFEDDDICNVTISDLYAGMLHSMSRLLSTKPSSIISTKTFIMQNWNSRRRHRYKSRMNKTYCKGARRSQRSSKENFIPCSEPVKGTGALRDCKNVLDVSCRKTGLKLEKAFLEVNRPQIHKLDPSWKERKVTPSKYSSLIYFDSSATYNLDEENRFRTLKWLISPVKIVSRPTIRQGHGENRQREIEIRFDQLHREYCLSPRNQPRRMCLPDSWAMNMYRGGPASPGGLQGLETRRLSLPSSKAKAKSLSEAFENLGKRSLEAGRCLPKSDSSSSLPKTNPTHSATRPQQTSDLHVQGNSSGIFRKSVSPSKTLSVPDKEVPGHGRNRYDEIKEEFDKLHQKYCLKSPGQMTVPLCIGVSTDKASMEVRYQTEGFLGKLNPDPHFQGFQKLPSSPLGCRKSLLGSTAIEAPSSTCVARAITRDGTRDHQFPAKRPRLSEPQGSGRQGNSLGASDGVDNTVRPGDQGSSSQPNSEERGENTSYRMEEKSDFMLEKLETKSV
UniProt O00291: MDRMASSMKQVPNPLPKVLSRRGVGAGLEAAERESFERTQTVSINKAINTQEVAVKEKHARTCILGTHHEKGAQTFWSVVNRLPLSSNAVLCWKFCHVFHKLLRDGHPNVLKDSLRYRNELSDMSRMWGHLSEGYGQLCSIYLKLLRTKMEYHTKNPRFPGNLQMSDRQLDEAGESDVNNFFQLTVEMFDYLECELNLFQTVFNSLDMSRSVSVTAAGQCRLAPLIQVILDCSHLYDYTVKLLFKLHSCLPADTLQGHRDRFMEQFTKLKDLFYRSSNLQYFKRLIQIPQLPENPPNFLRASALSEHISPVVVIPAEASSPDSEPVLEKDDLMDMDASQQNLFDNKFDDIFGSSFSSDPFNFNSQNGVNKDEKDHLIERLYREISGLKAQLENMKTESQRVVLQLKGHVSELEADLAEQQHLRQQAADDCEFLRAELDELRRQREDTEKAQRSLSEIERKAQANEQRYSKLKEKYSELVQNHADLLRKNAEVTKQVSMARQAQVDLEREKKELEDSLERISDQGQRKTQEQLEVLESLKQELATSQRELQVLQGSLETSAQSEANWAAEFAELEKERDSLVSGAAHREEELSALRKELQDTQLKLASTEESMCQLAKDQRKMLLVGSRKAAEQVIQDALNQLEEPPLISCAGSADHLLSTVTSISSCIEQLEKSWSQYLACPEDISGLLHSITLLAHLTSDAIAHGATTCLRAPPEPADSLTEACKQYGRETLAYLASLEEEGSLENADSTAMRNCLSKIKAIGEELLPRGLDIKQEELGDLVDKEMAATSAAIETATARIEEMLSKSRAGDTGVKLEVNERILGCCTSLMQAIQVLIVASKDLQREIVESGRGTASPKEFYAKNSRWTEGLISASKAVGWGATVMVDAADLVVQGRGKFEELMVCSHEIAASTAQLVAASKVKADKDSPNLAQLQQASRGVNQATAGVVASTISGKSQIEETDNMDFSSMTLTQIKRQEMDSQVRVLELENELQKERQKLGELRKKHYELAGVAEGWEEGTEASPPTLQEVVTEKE
UniProt Q9Y241: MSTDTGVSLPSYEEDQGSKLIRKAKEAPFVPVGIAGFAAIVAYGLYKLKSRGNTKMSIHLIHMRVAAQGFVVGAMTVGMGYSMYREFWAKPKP

[2] = compound: CS(=O)(=O)N1CCN(Cc2cc3nc(-c4cccc5[nH]ncc45)nc(N4CCOCC4)c3s2)CC1 [pictilisib]
Method in brief: as §1

[3] = compound: C[C@@H](Oc1cc(-c2cnn(C3CCNCC3)c2)cnc1N)c1c(Cl)ccc(F)c1Cl [crizotinib]
Method in brief: as §1

[4] = compound: C[C@H](C1=CC=C(C=C1)C(=O)NC2=C3C=CNC3=NC=C2)N
Method in brief: as §1

[5] = compound: C[C@H](Nc1ncnc2nc[nH]c12)c1cc2cccc(Cl)c2c(=O)n1-c1ccccc1 [duvelisib]
Method in brief: as §1

[6] = compound: Cc1cc(Nc2cc(CN3CCOCC3)c3nc(C)c(Cc4ccc(Cl)cc4F)n3n2)n[nH]1 [gandotinib]
Method in brief: as §1

[7] = compound: Cc1cc(Nc2cc(N3CCN(C)CC3)nc(Sc3ccc(NC(=O)C4CC4)cc3)n2)n[nH]1 [tozasertib]
Method in brief: as §1

[8] = compound: Cc1ccc(-n2nc(C(C)(C)C)cc2NC(=O)Nc2ccc(OCCN3CCOCC3)c3ccccc23)cc1 [doramapimod]
Method in brief: as §1

[9] = compound: Cc1ccc(NC(=O)c2ccc(CN3CC[C@H](N(C)C)C3)c(C(F)(F)F)c2)cc1Nc1nccc(-c2cncnc2)n1 [bafetinib]
Method in brief: as §1

[10] = compound: Cc1cccc(CC(=O)N2CCc3c2ccc(-c2cn(C)c4ncnc(N)c24)c3F)n1
Method in brief: as §1

[11] = compound: Cc1cn(-c2cc(NC(=O)c3ccc(C)c(Nc4nccc(-c5cccnc5)n4)c3)cc(C(F)(F)F)c2)cn1 [nilotinib]
Method in brief: as §1

[12] = compound: Cc1nc(Nc2n[nH]c3c2CN(C(=O)N[C@H](CN(C)C)c2ccccc2)C3(C)C)c2sccc2n1
Method in brief: as §1

[13] = compound: Cc1nc(Nc2ncc(C(=O)Nc3c(C)cccc3Cl)s2)cc(N2CCN(CCO)CC2)n1 [dasatinib]
Method in brief: as §1

[14] = compound: Cc1ncc(-c2ccnc(Nc3ccc(S(C)(=O)=O)cc3)n2)n1C(C)C
Method in brief: as §1

[15] = compound: Cn1cc(-c2ccc3c(c2)CCN3C(=O)Cc2cccc(C(F)(F)F)c2)c2c(N)ncnc21
Method in brief: as §1

[16] = compound: Cn1cc(CNCC2CCN(c3ncc(C(=O)NO)cn3)CC2)c2ccccc21 [quisinostat]
Method in brief: as §1

[17] = compound: Cn1cncc1[C@@](N)(c1ccc(Cl)cc1)c1ccc2c(c1)c(-c1cccc(Cl)c1)cc(=O)n2C [tipifarnib]
Method in brief: as §1

[18] = compound: NC(=O)Nc1cc(-c2cccc(F)c2)sc1C(=O)N[C@H]1CCCNC1
Method in brief: as §1

[19] = compound: NC(=O)c1cnc(N[C@@H]2CCCC[C@@H]2N)nc1Nc1cccc(-n2nccn2)c1
Method in brief: as §1

[20] = compound: NC1(c2ccc(-c3nc4ccn5c(=O)[nH]nc5c4cc3-c3ccccc3)cc2)CCC1
Method in brief: as §1

Target | log2 fold change [1] | log2 fold change [2] | log2 fold change [3] | log2 fold change [4] | log2 fold change [5] | log2 fold change [6] | log2 fold change [7] | log2 fold change [8] | log2 fold change [9] | log2 fold change [10] | log2 fold change [11] | log2 fold change [12] | log2 fold change [13] | log2 fold change [14] | log2 fold change [15] | log2 fold change [16] | log2 fold change [17] | log2 fold change [18] | log2 fold change [19] | log2 fold change [20]
HSP90B1 (UniProt P14625) | inactive: -0.001 | inactive: 0.022 | inactive: 0.031 | inactive: 0.028 | inactive: -0.004 | inactive: -0.012 | inactive: -0.001 | inactive: -0.043 | inactive: 0.018 | inactive: -0.048 | inactive: 0.004 | inactive: -0.01 | inactive: 0.029 | inactive: -0.005 | inactive: -0.001 | inactive: 0.046 | inactive: -0.008 | inactive: -0.019 | inactive: -0.007 | inactive: 0.006
HMGCS1 (UniProt Q01581) | inactive: 0.077 | inactive: 0.018 | inactive: 0.001 | inactive: -0.031 | inactive: 0.003 | inactive: 0.006 | inactive: -0.006 | inactive: 0.036 | inactive: 0.013 | inactive: -0.004 | inactive: 0.003 | inactive: -0.015 | inactive: 0.02 | inactive: 0.012 | inactive: -0.005 | inactive: -0.007 | inactive: 0.001 | inactive: -0.016 | inactive: -0.008 | inactive: -0.018
HK2 (UniProt P52789) | inactive: -0.003 | inactive: -0.017 | inactive: -0.069 | inactive: 0.043 | inactive: 0.007 | inactive: -0.056 | inactive: 0.007 | inactive: 0.05 | inactive: -0.076 | inactive: 0.004 | inactive: 0.065 | inactive: -0.003 | inactive: -0.052 | inactive: 0 | inactive: 0.033 | inactive: -0.079 | inactive: -0.01 | inactive: 0.048 | inactive: 0.035 | inactive: -0.031
HNRNPAB isoform 3 (UniProt Q99729) | inactive: 0.007 | inactive: 0.01 | inactive: 0.04 | inactive: -0.068 | inactive: -0.009 | inactive: 0.019 | inactive: -0.02 | inactive: -0.058 | inactive: -0.002 | inactive: 0.033 | inactive: -0.012 | inactive: 0.026 | inactive: 0.022 | inactive: 0.024 | inactive: -0.028 | inactive: 0.026 | inactive: 0.006 | inactive: 0 | inactive: -0.005 | inactive: 0.012
HOMEZ isoform 3 (UniProt Q8IX15) | inactive: -0.039 | inactive: 0.029 | inactive: 0.017 | inactive: -0.246 | inactive: 0.025 | inactive: 0.033 | inactive: -0.044 | inactive: -0.089 | inactive: -0.126 | inactive: -0.126 | inactive: -0.033 | inactive: -0.032 | inactive: -0.007 | inactive: 0.306 | inactive: -0.001 | inactive: -0.005 | inactive: 0.054 | inactive: 0.037 | inactive: -0.002 | inactive: -0.048
HMOX2 (UniProt P30519) | inactive: 0.004 | inactive: -0.042 | inactive: 0.003 | inactive: -0.03 | inactive: 0.017 | inactive: 0.024 | inactive: 0.04 | inactive: 0.03 | inactive: -0.03 | inactive: -0.001 | inactive: -0.029 | inactive: -0.042 | inactive: -0.014 | inactive: -0.066 | inactive: 0.048 | inactive: -0.019 | inactive: 0.101 | inactive: -0.013 | inactive: 0.004 | inactive: -0.02
HES1 (UniProt Q14469) | inactive: -0.046 | – | – | inactive: -0.211 | inactive: -0.036 | inactive: 0.122 | inactive: -0.084 | – | – | inactive: 0.092 | inactive: -0.06 | inactive: 0.007 | inactive: -0.072 | inactive: 0.227 | inactive: 0.021 | – | inactive: 0.134 | – | inactive: 0.069 | inactive: 0.046
HNMT (UniProt P50135) | inactive: -0.097 | inactive: -0.023 | – | inactive: -0.086 | inactive: 0.169 | inactive: -0.019 | inactive: -0.095 | – | inactive: -0.041 | inactive: 0.054 | – | – | inactive: 0.124 | – | inactive: -0.218 | – | – | – | inactive: 0.013 | inactive: -0.212
HOMER3 (UniProt Q9NSC5) | inactive: 0.091 | active: 0.42 | inactive: 0.021 | inactive: 0.048 | – | inactive: 0.061 | – | inactive: 0.016 | inactive: 0.234 | inactive: -0.072 | – | – | – | – | – | inactive: -0.147 | – | inactive: 0.019 | inactive: -0.023 | –
HNRNPL, A0A3B3ITJ4 | inactive: -0.011 | inactive: -0.002 | – | – | – | – | – | – | inactive: -0.083 | – | – | – | – | – | – | – | – | – | inactive: 0.019 | –
HSPA4L (UniProt O95757) | inactive: 0.013 | inactive: -0.009 | inactive: 0.016 | inactive: -0.016 | inactive: -0.001 | inactive: 0.002 | inactive: -0.011 | inactive: -0.008 | inactive: -0.002 | inactive: 0.027 | inactive: -0.026 | inactive: -0.006 | inactive: 0.001 | inactive: 0.012 | inactive: -0.007 | inactive: -0.006 | inactive: 0.003 | inactive: 0.002 | inactive: -0.002 | inactive: -0.01
HMGA1 isoform 2 (UniProt P17096) | inactive: -0.005 | – | inactive: 0.125 | active: 0.731 | inactive: -0.011 | inactive: -0.26 | – | inactive: -0.274 | – | inactive: -0.491 | inactive: 0.209 | inactive: 0.014 | inactive: 0.091 | inactive: 0.395 | inactive: -0.099 | inactive: 0.289 | inactive: 0.168 | inactive: -0.018 | inactive: -0.064 | inactive: -0.101
HEBP1 (UniProt Q9NRV9) | inactive: 0.026 | inactive: 0.08 | inactive: 0.201 | inactive: 0.033 | inactive: 0 | inactive: 0.138 | inactive: 0.026 | inactive: -0.045 | inactive: 0.056 | inactive: -0.038 | inactive: 0 | inactive: -0.039 | inactive: 0.14 | inactive: -0.043 | inactive: -0.03 | inactive: 0.023 | inactive: 0.001 | inactive: -0.051 | inactive: -0.028 | inactive: -0.097
HIST2H2BF isoform 2 (UniProt Q5QNW6) | inactive: -0.004 | inactive: 0.023 | inactive: -0.024 | inactive: 0.014 | inactive: -0.023 | inactive: -0.018 | inactive: 0.01 | inactive: -0.025 | inactive: -0.02 | inactive: -0.054 | inactive: 0 | inactive: -0.07 | inactive: -0.006 | inactive: -0.069 | inactive: -0.025 | inactive: 0 | inactive: 0.031 | inactive: 0.022 | inactive: -0.009 | inactive: 0.003
HMGN1 (UniProt P05114) | inactive: 0.017 | inactive: 0.014 | inactive: 0.056 | inactive: 0.041 | inactive: 0.052 | inactive: 0.02 | inactive: -0.011 | inactive: -0.075 | inactive: 0.01 | inactive: -0.099 | inactive: -0.01 | inactive: 0.022 | inactive: 0.086 | inactive: -0.012 | inactive: 0.045 | inactive: 0.008 | inactive: -0.028 | inactive: -0.016 | inactive: -0.005 | inactive: -0.013
HJURP (UniProt Q8NCD3) | inactive: 0.017 | inactive: -0.06 | inactive: -0.171 | – | inactive: 0.027 | – | – | inactive: 0.081 | inactive: -0.055 | – | inactive: -0.118 | inactive: 0.157 | inactive: -0.067 | inactive: 0.029 | inactive: 0.035 | inactive: -0.018 | inactive: 0.009 | inactive: 0.005 | inactive: 0.071 | inactive: -0.033
HIP1 (UniProt O00291) | inactive: -0.036 | inactive: -0.041 | inactive: -0.01 | inactive: -0.057 | inactive: 0.019 | inactive: 0.076 | inactive: 0.03 | inactive: 0.034 | inactive: -0.033 | inactive: 0.072 | inactive: -0.049 | inactive: 0.013 | inactive: -0.039 | inactive: -0.029 | inactive: -0.003 | inactive: -0.004 | inactive: -0.064 | inactive: -0.007 | inactive: 0.008 | inactive: -0.029
HIGD1A isoform 2 (UniProt Q9Y241) | inactive: 0.138 | – | – | inactive: -0.281 | inactive: 0.076 | inactive: 0.188 | – | – | – | inactive: 0.078 | – | – | inactive: 0.032 | – | inactive: -0.05 | – | – | – | inactive: 0.013 | inactive: -0.136

Fetched one by one from the entries so far, 2 records:
Target | log2 fold change [1] | log2 fold change [2] | log2 fold change [3] | log2 fold change [4] | log2 fold change [5] | log2 fold change [6] | log2 fold change [7] | log2 fold change [8] | log2 fold change [9] | log2 fold change [10] | log2 fold change [11] | log2 fold change [12] | log2 fold change [13] | log2 fold change [14] | log2 fold change [15] | log2 fold change [16] | log2 fold change [17] | log2 fold change [18] | log2 fold change [19] | log2 fold change [20]
HMGA1 isoform 2 (UniProt P17096) | inactive: -0.005 | – | inactive: 0.125 | active: 0.731 | inactive: -0.011 | inactive: -0.26 | – | inactive: -0.274 | – | inactive: -0.491 | inactive: 0.209 | inactive: 0.014 | inactive: 0.091 | inactive: 0.395 | inactive: -0.099 | inactive: 0.289 | inactive: 0.168 | inactive: -0.018 | inactive: -0.064 | inactive: -0.101
HMGCS1 (UniProt Q01581) | inactive: 0.077 | inactive: 0.018 | inactive: 0.001 | inactive: -0.031 | inactive: 0.003 | inactive: 0.006 | inactive: -0.006 | inactive: 0.036 | inactive: 0.013 | inactive: -0.004 | inactive: 0.003 | inactive: -0.015 | inactive: 0.02 | inactive: 0.012 | inactive: -0.005 | inactive: -0.007 | inactive: 0.001 | inactive: -0.016 | inactive: -0.008 | inactive: -0.018

— the supplement of paper PMC10849652
